Reference: the supplement of paper PMC5949888
Most values lie at the floor of the assay. Slopes are relative: functional sequences can read slightly below zero.

What follows are substances tested on Saccharomyces cerevisiae PS128 hsf1 delta, HSF1(1-493) fusion (assay: growth estimate (transactivation domain function in HSF1 fusion, heat-shock survival) (a.u. (slope of normalised read count over time)); higher = stronger growth at 37°C, i.e. more transactivation activity). Settings: library: random library.

Row | Substance | growth estimate
1 | WYIGPEQ | < -0.25
2 | VGLSVRH | < -0.25
3 | RERSDYGVISHGSRNNADTP | < -0.25
4 | TLGQGLIPKIIPDGLSRART | -0.238
5 | RDKEERCTASTLNIISAESR | < -0.25
6 | REARSSLVVKGVGPRWVETL | < -0.25
7 | HMQPRTGSPNVFEFRLRLVC | < -0.25
8 | YGPYPEAPGPGNV | < -0.25
9 | GACMRTESAKGLSSKNITVT | < -0.25
10 | PSRDSALWRFNKIIKGTRYP | < -0.25
11 | HMLGSTMLPTQ | < -0.25
12 | INRVDI | < -0.25
13 | CRADGRNTGP | < -0.25
14 | CPSLPSSSLARDRSSHSRSR | < -0.25
15 | NKGGEPRETTSTECPSRVVP | < -0.25
16 | RRTGVGQ | < -0.25
17 | IRYPPLT | 0.0142
18 | SSEIVPWVI | < -0.25
19 | IGQGISAAVELPGWSTLATY | < -0.25
20 | AQDFI | < -0.25
21 | NILA | < -0.25
22 | DLDFREIVTCRLVIGSVSDD | < -0.25
23 | RFKY | < -0.25

Row | Substance | growth estimate
24 | TSPPRKV | -0.245
25 | SPHPLGKWN | < -0.25
26 | ENMDSIAV | < -0.25
27 | PPDSRISTCRDRRMKDKAHT | < -0.25
28 | GRAVSRFQVFAANVRYRTHK | < -0.25
29 | KESCLTAHARAL | < -0.25
30 | APIGLRNLRQLCQCRINAAT | < -0.25
31 | NPLLAAVSRVQYWLVATQGR | < -0.25
32 | YIDT | < -0.25
33 | YSVGKQGRWVVARMGVNNGT | < -0.25
34 | DKSQ | < -0.25
35 | HHQLTHASGAVAYQNSL | < -0.25
36 | ARLHRLTERP | < -0.25
37 | GVGNELWLGLSSLAHMGNSP | < -0.25
38 | EFSAFVPLCDTSGSGAPIPG | < -0.25
39 | YVVAYVREIPLPHCKKAGSA | < -0.25
40 | LLSYYRGCMLRVCSGASRRA | < -0.25
41 | TPMGRLANSHEWNEVQDYIH | < -0.25
42 | IGAYTGVVYSISGDYNGVPS | < -0.25
43 | GAVLSRITGLRGVVRISGRP | < -0.25
44 | RVSGLGCLGRDKATRRGLRS | < -0.25
45 | NSSTHVA | -0.15
46 | YYATEW | < -0.25

Row | Substance | growth estimate
47 | RGCMWIVCGLVALPFKYCD | < -0.25
48 | RSCTRARTFFGLHLPQSEHT | < -0.25
49 | QDLPGDSNRSEVSY | < -0.25
50 | NGWGAACSATDSVSAVYLYS | < -0.25
51 | RGDWGRTNSRTRGSSERKKC | < -0.25
52 | REPNRRRSCTVDVFHAVFPP | < -0.25
53 | LNPVPE | < -0.25
54 | VGGACMSHLLTKCPVISARC | < -0.25
55 | CHVDCQLDSGSRNRKIS | < -0.25
56 | YTGASCDDEVTVTGYGHFQK | < -0.25
57 | GIGRV | < -0.25
58 | SSVRHQPEHDIIWGCGLNCQ | < -0.25
59 | PIQAVGTGVNRKVLFDSPGE | < -0.25
60 | PYKPLHGTRRSRPERPAPSA | < -0.25
61 | FAASGP | < -0.25
62 | TASCLTINSVGEKAGYRGPV | < -0.25
63 | FQMTEIADSDKAE | -0.245
64 | TACA | < -0.25
65 | NESTGT | < -0.25
66 | LLGYGVGATMGIHSCP | < -0.25
67 | GGIVPASNEAKVASYQGRGG | < -0.25
68 | CQDTPHRGSGGGAGSVGNQF | < -0.25
69 | LSITSLAV | < -0.25

Row | Substance | growth estimate
70 | QARKLHQP | < -0.25
71 | GVAVGAALIKMVHGHGHVCL | < -0.25
72 | GHVIAWFGRIRQSHIWRSRL | < -0.25
73 | KAFISRMRFFSGNLGYLARR | < -0.25
74 | RRDK | < -0.25
75 | GGDTVMGTSPY | < -0.25
76 | VPFTCSVRGELTGGVAAIKT | < -0.25
77 | EGRRIH | < -0.25
78 | KPLSKA | < -0.25
79 | NTSAIKTRTHESDPPSKARM | < -0.25
80 | RLSTQIGGFPV | < -0.25
81 | RNSPIIRFGLAVSTRRTKVH | < -0.25
82 | GQSRD | < -0.25
83 | RYIAISQNSFYQEDLCPALR | < -0.25
84 | RGHGARMAAV | < -0.25
85 | LRQECYPVRSLT | < -0.25
86 | SRLYSFTTELLLKIGRKDKS | < -0.25
87 | GQVTL | < -0.25
88 | LSLASSLMV | < -0.25
89 | ERFQRQRT | < -0.25
90 | PRAGDMTGVVEVV | < -0.25
91 | GSYSSLCHTRSGGVGNKKEK | < -0.25
92 | IGTRRTIMNWPTDSC | < -0.25

Row | Substance | growth estimate
93 | HWTYGGVNTRPVRMSGETR | < -0.25
94 | SDWSICFSVGWDVPMGCVEN | < -0.25
95 | TAPGPARWRVASV | < -0.25
96 | STKWLSHWL | < -0.25
97 | RHTYEWLASKPHRPPICTRA | < -0.25
98 | IPSH | < -0.25
99 | VFTTINRTTATVSRSKLMQ | < -0.25
100 | RTRSPM | < -0.25
101 | GVGSRAGYEQRRRA | < -0.25
102 | ATGAHFPG | < -0.25
103 | PTEVEGSLRGQGI | < -0.25
104 | DSSSQAWRTVLTPYC | < -0.25
105 | NHRDHNLGSHIDRPVHLCAS | < -0.25
106 | MVGVPI | < -0.25
107 | TTVGAPGHLV | < -0.25
108 | SIKLPSRPL | < -0.25
109 | FSLPDFSWT | 0.107
110 | LDLGRTGLSTFASDRWTVGR | < -0.25
111 | IRVI | < -0.25
112 | SFPG | -0.245
113 | LAGRSTNRCGLVSTVKRGWR | < -0.25
114 | PLLRQKRRYELGSRQRECMG | < -0.25
115 | LCEFLPTKGS | < -0.25

Numbers 83 to 113 from above:
Row | Substance | growth estimate
83 | RYIAISQNSFYQEDLCPALR | < -0.25
84 | RGHGARMAAV | < -0.25
85 | LRQECYPVRSLT | < -0.25
86 | SRLYSFTTELLLKIGRKDKS | < -0.25
87 | GQVTL | < -0.25
88 | LSLASSLMV | < -0.25
89 | ERFQRQRT | < -0.25
90 | PRAGDMTGVVEVV | < -0.25
91 | GSYSSLCHTRSGGVGNKKEK | < -0.25
92 | IGTRRTIMNWPTDSC | < -0.25
93 | HWTYGGVNTRPVRMSGETR | < -0.25
94 | SDWSICFSVGWDVPMGCVEN | < -0.25
95 | TAPGPARWRVASV | < -0.25
96 | STKWLSHWL | < -0.25
97 | RHTYEWLASKPHRPPICTRA | < -0.25
98 | IPSH | < -0.25
99 | VFTTINRTTATVSRSKLMQ | < -0.25
100 | RTRSPM | < -0.25
101 | GVGSRAGYEQRRRA | < -0.25
102 | ATGAHFPG | < -0.25
103 | PTEVEGSLRGQGI | < -0.25
104 | DSSSQAWRTVLTPYC | < -0.25
105 | NHRDHNLGSHIDRPVHLCAS | < -0.25
106 | MVGVPI | < -0.25
107 | TTVGAPGHLV | < -0.25
108 | SIKLPSRPL | < -0.25
109 | FSLPDFSWT | 0.107
110 | LDLGRTGLSTFASDRWTVGR | < -0.25
111 | IRVI | < -0.25
112 | SFPG | -0.245
113 | LAGRSTNRCGLVSTVKRGWR | < -0.25

Continuation.

Row | Substance | growth estimate
116 | GLMKESPSLAPEFHCEHNFP | < -0.25
117 | SRVHMPFFLSTVAYWI | < -0.25
118 | VTWEEYPIAVN | < -0.25
119 | TINRRGVLNLPCGMSVRTNS | < -0.25
120 | GLKQGRIWTR | < -0.25
121 | YYCVAR | < -0.25
122 | GPKCEIKCSYCIK | < -0.25
123 | LSLVSMNFSDLILRLWVVRH | < -0.25
124 | GVVVLARTAKKSRHVLHSKG | < -0.25
125 | VMVPWTRRYNCLVCSYRADV | -0.248
126 | GFLRQDSGISIIVM | < -0.25
127 | ESQST | < -0.25
128 | IRITATGRFINIASEVESGR | < -0.25
129 | RLAGPGSK | < -0.25
130 | LGPKNDRLEISLLPPSYLST | < -0.25
131 | SFSKRLKPIPDGCSELLIDP | < -0.25
132 | LVCFKLITGVRWYHDSQGKY | < -0.25
133 | LAGPLMGSIAANRFMQGTKQ | < -0.25
134 | GVLQCLIYCDEHIQLRVSQP | < -0.25
135 | ARFIHGPPAGNRSRN | < -0.25
136 | YIFRCSGLKCLLTKVWSQNY | -0.246
137 | PDVRLENIAFFVTPTSHYHV | -0.113
138 | ILRSSGLSPFLEEAM | < -0.25

Row | Substance | growth estimate
139 | RTHEEHD | < -0.25
140 | TRMSPRNVVFAS | < -0.25
141 | SQVYRLPLS | < -0.25
142 | WYLRMT | < -0.25
143 | NPTVSNALFFIAGG | < -0.25
144 | QACGEFRPGSVATRGATCPG | < -0.25
145 | TGFGLVEAIWDVS | -0.172
146 | WLDQSNPECVFGISVFAVAR | < -0.25
147 | GAPIHTSFLSSKGAG | < -0.25
148 | QRAIRPARSGTYASH | < -0.25
149 | DGICAITRGALKLR | < -0.25
150 | LKRDNAPVYRGHRCETGIGP | < -0.25
151 | IRGVSQASSGGTPLMTIVAC | < -0.25
152 | GYTPLEGLTTAA | < -0.25
153 | GWVVVKSVVRRT | < -0.25
154 | RIHTKEFFYRVHSRQPGPAP | < -0.25
155 | KIAG | < -0.25
156 | ATVRI | < -0.25
157 | NLKVGVVQMWI | < -0.25
158 | APRCRSSQTCRSDSERVGRC | < -0.25
159 | LGVEAASSEGN | < -0.25
